According to the supplement of paper PMC10849652:
Some of the results follow.

By UniProt entry, the sequences of proteins in these tests, tags left out. Where a name states a change or a piece, a line headed by the entry shows the natural chain unless it says otherwise.
UniProt Q53FT3: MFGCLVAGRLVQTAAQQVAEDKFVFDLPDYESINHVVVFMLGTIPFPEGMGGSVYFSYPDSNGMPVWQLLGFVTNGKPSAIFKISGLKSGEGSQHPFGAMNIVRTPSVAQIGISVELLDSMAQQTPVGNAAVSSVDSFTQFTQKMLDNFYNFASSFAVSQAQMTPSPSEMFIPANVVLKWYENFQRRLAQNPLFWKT
UniProt P31943: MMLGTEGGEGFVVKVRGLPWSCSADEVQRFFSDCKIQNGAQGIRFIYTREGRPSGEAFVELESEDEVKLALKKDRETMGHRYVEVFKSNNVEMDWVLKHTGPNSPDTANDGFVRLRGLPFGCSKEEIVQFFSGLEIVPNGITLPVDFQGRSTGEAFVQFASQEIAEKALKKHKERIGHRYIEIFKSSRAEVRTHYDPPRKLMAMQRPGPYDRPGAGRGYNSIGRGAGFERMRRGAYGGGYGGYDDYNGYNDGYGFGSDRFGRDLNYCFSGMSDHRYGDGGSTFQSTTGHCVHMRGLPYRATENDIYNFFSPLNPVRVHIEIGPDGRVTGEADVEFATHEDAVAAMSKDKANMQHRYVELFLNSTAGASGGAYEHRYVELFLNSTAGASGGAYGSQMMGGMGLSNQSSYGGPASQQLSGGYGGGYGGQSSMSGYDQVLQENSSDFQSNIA
UniProt Q92506: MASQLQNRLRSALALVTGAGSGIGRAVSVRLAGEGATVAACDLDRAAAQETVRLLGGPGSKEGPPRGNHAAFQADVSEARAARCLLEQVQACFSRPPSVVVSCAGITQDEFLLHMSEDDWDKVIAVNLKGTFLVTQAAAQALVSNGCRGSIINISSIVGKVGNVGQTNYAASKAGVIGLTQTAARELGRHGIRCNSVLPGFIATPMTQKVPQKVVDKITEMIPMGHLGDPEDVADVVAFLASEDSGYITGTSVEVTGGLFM
UniProt Q6YN16: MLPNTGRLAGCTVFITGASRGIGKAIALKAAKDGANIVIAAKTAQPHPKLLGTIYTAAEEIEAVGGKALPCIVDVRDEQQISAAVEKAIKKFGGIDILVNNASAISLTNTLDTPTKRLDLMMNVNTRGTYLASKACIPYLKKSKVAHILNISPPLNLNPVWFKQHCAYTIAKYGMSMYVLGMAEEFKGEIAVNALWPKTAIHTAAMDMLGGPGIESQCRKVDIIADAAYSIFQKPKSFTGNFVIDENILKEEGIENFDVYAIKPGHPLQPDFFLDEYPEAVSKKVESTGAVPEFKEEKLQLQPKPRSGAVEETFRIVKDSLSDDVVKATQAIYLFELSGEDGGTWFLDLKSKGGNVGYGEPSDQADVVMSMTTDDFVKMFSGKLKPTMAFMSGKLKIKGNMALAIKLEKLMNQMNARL
UniProt P19367: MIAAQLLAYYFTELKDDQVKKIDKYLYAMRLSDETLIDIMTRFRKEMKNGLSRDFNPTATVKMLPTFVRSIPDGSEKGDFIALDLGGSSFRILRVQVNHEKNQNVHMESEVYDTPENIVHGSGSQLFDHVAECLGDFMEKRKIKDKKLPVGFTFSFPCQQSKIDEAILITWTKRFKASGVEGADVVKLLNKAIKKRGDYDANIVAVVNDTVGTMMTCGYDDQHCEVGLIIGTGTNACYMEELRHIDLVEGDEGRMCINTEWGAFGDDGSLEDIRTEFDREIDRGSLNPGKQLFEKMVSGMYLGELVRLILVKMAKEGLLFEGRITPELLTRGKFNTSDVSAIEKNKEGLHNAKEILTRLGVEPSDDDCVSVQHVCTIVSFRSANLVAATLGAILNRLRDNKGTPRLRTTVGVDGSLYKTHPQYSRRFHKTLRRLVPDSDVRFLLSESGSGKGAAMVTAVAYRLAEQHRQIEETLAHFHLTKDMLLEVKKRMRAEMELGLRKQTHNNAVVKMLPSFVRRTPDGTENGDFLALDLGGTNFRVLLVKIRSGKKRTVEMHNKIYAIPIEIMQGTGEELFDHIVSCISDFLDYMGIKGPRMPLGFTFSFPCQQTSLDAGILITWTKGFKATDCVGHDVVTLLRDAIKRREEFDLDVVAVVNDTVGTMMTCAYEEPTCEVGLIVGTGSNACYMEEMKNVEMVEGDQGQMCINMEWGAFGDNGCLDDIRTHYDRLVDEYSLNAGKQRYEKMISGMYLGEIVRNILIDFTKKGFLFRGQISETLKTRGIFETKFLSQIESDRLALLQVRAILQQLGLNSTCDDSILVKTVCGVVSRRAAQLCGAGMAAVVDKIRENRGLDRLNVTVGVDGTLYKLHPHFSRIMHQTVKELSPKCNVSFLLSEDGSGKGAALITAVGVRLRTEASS
UniProt Q9NZL4: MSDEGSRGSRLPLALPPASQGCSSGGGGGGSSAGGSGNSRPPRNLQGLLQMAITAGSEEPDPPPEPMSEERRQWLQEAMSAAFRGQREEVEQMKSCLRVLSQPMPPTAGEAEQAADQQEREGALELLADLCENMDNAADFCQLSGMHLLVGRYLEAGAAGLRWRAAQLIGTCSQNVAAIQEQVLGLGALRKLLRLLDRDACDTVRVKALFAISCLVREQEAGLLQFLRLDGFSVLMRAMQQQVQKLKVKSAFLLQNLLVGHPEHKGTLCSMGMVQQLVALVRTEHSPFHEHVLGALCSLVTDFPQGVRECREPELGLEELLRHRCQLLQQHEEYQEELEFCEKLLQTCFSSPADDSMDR
UniProt P56937: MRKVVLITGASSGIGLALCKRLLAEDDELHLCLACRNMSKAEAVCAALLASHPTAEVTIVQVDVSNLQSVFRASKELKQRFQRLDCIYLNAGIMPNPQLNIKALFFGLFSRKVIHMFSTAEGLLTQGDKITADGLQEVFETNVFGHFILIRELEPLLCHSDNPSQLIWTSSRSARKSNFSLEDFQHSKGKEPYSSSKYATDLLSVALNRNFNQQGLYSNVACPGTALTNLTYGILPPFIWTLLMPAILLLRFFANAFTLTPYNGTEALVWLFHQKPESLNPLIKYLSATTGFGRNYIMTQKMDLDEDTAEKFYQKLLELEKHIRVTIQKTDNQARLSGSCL
UniProt O00291: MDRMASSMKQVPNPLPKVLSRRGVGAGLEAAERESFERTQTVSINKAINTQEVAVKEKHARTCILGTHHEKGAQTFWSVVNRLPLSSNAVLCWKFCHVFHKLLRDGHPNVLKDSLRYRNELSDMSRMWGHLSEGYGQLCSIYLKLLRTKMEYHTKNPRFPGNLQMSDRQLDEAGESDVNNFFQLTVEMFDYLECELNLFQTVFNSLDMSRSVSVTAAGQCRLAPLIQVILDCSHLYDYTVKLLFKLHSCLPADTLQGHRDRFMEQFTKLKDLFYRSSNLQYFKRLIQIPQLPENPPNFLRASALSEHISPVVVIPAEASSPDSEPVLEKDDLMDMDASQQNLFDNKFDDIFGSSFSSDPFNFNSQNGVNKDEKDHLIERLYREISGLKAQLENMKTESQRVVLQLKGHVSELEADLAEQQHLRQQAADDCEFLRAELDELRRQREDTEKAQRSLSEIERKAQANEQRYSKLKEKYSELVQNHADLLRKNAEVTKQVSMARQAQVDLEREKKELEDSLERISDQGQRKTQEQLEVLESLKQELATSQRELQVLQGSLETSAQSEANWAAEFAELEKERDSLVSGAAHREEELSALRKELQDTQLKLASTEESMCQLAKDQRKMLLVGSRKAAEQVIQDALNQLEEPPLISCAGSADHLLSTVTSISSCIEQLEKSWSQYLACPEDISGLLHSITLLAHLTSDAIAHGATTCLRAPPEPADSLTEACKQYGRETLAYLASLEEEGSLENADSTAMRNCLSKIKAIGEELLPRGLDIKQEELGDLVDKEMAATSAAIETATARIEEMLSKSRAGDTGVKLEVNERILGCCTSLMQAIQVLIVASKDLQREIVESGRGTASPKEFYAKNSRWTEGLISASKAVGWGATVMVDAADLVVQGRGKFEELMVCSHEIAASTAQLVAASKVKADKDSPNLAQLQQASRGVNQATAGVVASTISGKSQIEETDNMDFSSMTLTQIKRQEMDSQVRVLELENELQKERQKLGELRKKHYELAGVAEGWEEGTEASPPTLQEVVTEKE
UniProt O60725, whole entry, looked up: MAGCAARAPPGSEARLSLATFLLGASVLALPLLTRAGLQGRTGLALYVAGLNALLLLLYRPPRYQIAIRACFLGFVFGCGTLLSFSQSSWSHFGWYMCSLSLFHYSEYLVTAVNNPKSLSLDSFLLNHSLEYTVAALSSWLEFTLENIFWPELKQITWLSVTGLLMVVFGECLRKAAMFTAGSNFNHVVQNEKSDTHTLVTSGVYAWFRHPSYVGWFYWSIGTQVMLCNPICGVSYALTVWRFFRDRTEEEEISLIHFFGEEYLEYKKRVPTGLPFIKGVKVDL
UniProt Q9BTY7: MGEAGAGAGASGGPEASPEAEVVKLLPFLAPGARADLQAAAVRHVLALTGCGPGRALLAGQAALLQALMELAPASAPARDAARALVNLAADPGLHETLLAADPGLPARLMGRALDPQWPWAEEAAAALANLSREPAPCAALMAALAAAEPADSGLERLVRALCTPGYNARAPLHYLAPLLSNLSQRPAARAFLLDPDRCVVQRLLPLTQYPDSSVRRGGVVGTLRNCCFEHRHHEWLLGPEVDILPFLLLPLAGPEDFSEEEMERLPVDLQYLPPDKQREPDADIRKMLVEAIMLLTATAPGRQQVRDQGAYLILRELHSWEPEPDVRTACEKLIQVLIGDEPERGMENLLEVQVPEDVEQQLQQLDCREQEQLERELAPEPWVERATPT
UniProt Q3SXM5: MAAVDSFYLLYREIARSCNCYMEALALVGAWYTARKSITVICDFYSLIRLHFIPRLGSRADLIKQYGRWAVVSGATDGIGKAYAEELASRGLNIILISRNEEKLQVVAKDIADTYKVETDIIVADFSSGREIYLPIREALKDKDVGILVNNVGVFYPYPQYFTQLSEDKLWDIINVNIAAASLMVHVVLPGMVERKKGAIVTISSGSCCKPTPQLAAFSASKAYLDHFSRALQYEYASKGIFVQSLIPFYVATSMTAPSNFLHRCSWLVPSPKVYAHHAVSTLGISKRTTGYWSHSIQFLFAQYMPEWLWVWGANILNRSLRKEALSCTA
UniProt Q14103: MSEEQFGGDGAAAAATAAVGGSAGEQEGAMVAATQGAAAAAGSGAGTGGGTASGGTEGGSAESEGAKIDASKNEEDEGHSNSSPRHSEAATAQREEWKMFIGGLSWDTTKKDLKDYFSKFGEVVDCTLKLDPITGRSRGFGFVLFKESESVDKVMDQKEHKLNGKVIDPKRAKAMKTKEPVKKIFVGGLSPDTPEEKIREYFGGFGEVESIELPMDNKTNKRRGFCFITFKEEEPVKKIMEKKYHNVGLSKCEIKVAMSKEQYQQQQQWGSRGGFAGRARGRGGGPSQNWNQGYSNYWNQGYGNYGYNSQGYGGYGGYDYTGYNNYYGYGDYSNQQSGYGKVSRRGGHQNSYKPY
UniProt Q00839, whole entry, looked up: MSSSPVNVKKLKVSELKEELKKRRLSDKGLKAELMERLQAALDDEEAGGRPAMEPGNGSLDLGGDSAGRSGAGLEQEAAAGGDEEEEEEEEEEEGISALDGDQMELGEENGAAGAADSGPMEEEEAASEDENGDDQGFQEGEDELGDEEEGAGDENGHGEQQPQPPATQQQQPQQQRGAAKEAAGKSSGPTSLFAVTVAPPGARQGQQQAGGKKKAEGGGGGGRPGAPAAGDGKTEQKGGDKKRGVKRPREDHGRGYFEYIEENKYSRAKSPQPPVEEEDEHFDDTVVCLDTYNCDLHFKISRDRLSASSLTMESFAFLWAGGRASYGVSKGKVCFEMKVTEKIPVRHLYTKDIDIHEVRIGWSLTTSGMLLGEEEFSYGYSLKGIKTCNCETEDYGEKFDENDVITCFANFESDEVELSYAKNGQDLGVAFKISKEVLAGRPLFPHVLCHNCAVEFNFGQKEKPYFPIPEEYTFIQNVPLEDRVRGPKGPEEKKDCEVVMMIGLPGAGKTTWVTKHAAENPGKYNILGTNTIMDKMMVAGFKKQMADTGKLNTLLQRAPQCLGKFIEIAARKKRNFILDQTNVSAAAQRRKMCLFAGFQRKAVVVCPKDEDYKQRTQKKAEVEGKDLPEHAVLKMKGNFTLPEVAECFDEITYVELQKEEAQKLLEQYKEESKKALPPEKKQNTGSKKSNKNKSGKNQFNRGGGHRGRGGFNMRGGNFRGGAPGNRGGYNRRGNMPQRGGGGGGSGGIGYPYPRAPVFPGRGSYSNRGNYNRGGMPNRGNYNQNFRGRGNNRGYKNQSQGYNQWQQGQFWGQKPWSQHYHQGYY
UniProt P61604, whole entry, looked up: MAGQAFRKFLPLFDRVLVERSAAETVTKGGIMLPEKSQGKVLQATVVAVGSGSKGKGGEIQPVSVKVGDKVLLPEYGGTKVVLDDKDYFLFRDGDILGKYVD
UniProt P09429: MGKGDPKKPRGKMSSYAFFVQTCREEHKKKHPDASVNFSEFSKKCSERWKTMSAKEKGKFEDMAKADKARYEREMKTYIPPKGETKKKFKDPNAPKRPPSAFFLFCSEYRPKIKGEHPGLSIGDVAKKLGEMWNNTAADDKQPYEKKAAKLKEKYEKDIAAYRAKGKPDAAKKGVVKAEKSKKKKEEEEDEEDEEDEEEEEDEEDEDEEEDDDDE

How the values were obtained:
Experiment in all cases: log2 fold change, soluble protein after heating vs DMSO (PISA); higher = thermal stabilisation; K562 cells, 10 uM, 30 min; active = over 0.2 and 3.5 SD of the protein, either way, in both replicates (recomputed)
[1] = compound: CC1=C(C=C(C=C1)NC(=O)C2=CC(=CC=C2)C(C)(C)C#N)NC3=CC4=C(C=C3)N=CN(C4=O)C
In short: (§1)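 Values are thermal stability changes relative to control samples and are taken from duplicates. They are stated as log2 fold changes. Before quantification by TMTpro 16plex LC-MS/MS with equalised channel sums, K562 cells at 2×10^6 cells/mL were treated with 10 μM compound for 30 min, heated in aliquots for 3 min across 48°C-58°C, pooled, extracted in PBS with 0.5% NP-40 at 4°C, and centrifuged at 21,000xg for 90 min to give the soluble supernatant.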

[2] = compound: CC1=C(C=C(C=C1)NC(=O)C2=CC(=CC=C2)N(C)C)NC(=O)C3=CC=C(C=C3)O
In short: as §1

[3] = compound: CC1=CC=C(C=C1)SC2=C3C=C(SC3=CN=C2)C(=O)N
In short: as §1

[4] = compound: CC1=NC(=CC=C1)C2=C(N=C(N2)C(C)(C)C)C3=CC4=NC=CN=C4C=C3
In short: as §1

[5] = compound: CCCCN(Cc1ccc(C(=O)NO)cc1)C(=O)Nc1ccccc1 [Nexturastat A]
In short: as §1

[6] = compound: CCCS(=O)(=O)Nc1ccc(F)c(C(=O)c2c[nH]c3ncc(-c4ccc(Cl)cc4)cc23)c1F [vemurafenib]
In short: as §1

[7] = compound: CCCS(=O)(=O)Nc1ccc(F)c(C(=O)c2c[nH]c3ncc(Cl)cc23)c1F
In short: as §1

[8] = compound: CCCc1cc(C)[nH]c(=O)c1CNC(=O)c1cc(-c2ccnc(N3CCN(C)CC3)c2)cc2c1cnn2C(C)C
In short: as §1

[9] = compound: CCN(CC)Cc1ccc2cc(COC(=O)Nc3ccc(C(=O)NO)cc3)ccc2c1 [givinostat]
In short: as §1

[10] = compound: CCN(CCCOc1ccc2c(Nc3cc(CC(=O)Nc4cccc(F)c4)[nH]n3)ncnc2c1)CCOP(=O)(O)O [barasertib]
In short: as §1

Measured: log2 fold change

HSPA8 (UniProt E9PK54)
inactive: [1] 0.023 | [2] 0.034 | [3] -0.123 | [4] 0.006 | [5] 0.227 | [6] -0.036 | [7] 0.026 | [8] -0.098 | [9] 0.167 | [10] -0.023

HIKESHI (UniProt Q53FT3)
inactive: [1] -0.138 | [2] -0.051 | [3] 0.003 | [4] -0.011 | [5] -0.037 | [6] 0.027 | [7] 0.003 | [8] -0.033 | [9] -0.008 | [10] 0.011

HNRNPH1 (UniProt P31943)
inactive: [1] 0.077 | [2] -0.044 | [3] 0.005 | [4] 0.047 | [5] 0.201 | [6] 0.086 | [7] 0.144 | [8] 0.029 | [9] 0.115 | [10] 0.05

HSPH1 (UniProt Q92598)
inactive: [1] 0.025 | [2] -0.063 | [3] -0.002 | [4] 0.045 | [5] 0.033 | [6] 0.028 | [7] 0.032 | [8] 0.025 | [9] 0.003 | [10] 0.053

HSD17B8 (UniProt Q92506)
inactive: [1] 0.003 | [2] 0.01 | [3] 0.013 | [4] -0.018 | [5] -0.029 | [6] 0.063 | [7] -0.015 | [8] -0.041 | [9] -0.035 | [10] -0.015

HIST2H3A (UniProt Q71DI3)
inactive: [1] -0.1 | [2] -0.004 | [3] -0.119 | [4] -0.056 | [6] -0.203 | [7] 0.592 | [8] 0.037 | [9] 0.321 | [10] -0.148
active: [5] 0.921

HSDL2 (UniProt Q6YN16)
inactive: [1] 0.023 | [2] -0.104 | [3] 0.072 | [4] 0.041 | [5] -0.044 | [6] 0.02 | [7] 0.104 | [8] 0.032 | [9] 0.013 | [10] 0.048

HK1 isoform 2 (UniProt P19367)
inactive: [1] -0.035 | [2] -0.003 | [3] 0.015 | [4] 0.032 | [5] -0.095 | [6] -0.022 | [7] -0.007 | [8] -0.03 | [9] -0.005 | [10] 0.003

HMGN2 (UniProt P05204)
inactive: [1] 0.115 | [2] 0.097 | [3] -0.038 | [4] 0.047 | [5] -0.016 | [6] 0.032 | [7] -0.058 | [8] -0.078 | [9] -0.019 | [10] 0.047

HNRNPK isoform 2 (UniProt P61978)
inactive: [1] 0.034 | [2] 0.004 | [3] -0.003 | [4] 0.075 | [5] 0.022 | [6] 0.048 | [7] 0.048 | [8] -0.031 | [9] 0.063 | [10] 0.024

HSPBP1 isoform 3 (UniProt Q9NZL4)
inactive: [1] 0.029 | [2] -0.011 | [3] 0.011 | [4] 0.007 | [5] -0.02 | [6] 0.086 | [7] 0.095 | [8] -0.004 | [9] 0.038 | [10] 0.056

HSD17B7 (UniProt P56937)
inactive: [1] -0.021 | [2] -0.004 | [3] 0.047 | [4] 0.092 | [5] -0.128 | [6] 0.056 | [7] 0.099 | [8] -0.06 | [9] -0.021 | [10] 0.07

HIP1 (UniProt O00291)
inactive: [1] -0.086 | [2] -0.004 | [3] -0.028 | [4] 0.002 | [6] -0.003 | [7] 0.056 | [8] 0.233 | [9] 0.043 | [10] 0.01
active: [5] 0.286

HYOU1 (UniProt Q9Y4L1)
inactive: [1] 0.003 | [2] -0.011 | [3] 0.015 | [4] -0.03 | [5] 0.03 | [6] -0.018 | [7] -0.08 | [8] 0.048 | [9] 0.025 | [10] -0.011

HUWE1 (UniProt Q7Z6Z7)
inactive: [1] 0.024 | [2] -0.028 | [3] -0.009 | [4] -0.011 | [5] -0.032 | [6] 0.017 | [7] 0.049 | [8] 0.006 | [9] 0.006 | [10] 0.012

ICMT (UniProt O60725)
inactive: [1] -0.048 | [2] -0.085 | [3] -0.079 | [4] 0.072 | [5] -0.204 | [6] 0 | [7] -0.103 | [8] 0.064 | [9] -0.037 | [10] 0.022

HIRIP3 (UniProt Q9BW71)
inactive: [1] -0.016 | [2] -0.042 | [3] 0.011 | [4] 0.047 | [5] -0.004 | [6] 0.019 | [7] 0.039 | [8] -0.058 | [9] 0.042 | [10] 0.006

HGH1 (UniProt Q9BTY7)
inactive: [1] 0.002 | [2] -0.038 | [3] 0.083 | [4] -0.001 | [5] 0.284 | [6] 0.023 | [7] 0.022 | [8] 0.129 | [9] 0.053 | [10] 0.051

HS2ST1 (UniProt Q7LGA3)
inactive: [1] -0.048 | [2] 0.103 | [3] -0.048 | [4] -0.042 | [5] 0.063 | [6] -0.022 | [7] -0.02 | [8] 0.014 | [9] -0.058 | [10] 0.02

IARS2 (UniProt Q9NSE4)
inactive: [1] -0.034 | [2] 0.015 | [3] 0.007 | [4] 0.039 | [5] -0.04 | [6] 0.002 | [7] 0.022 | [8] -0.02 | [9] -0.042 | [10] -0.007

HSDL1 (UniProt Q3SXM5)
inactive: [1] -0.017 | [2] 0.012 | [3] 0.043 | [4] -0.039 | [5] -0.044 | [6] -0.051 | [7] 0.06 | [8] -0.044 | [9] -0.01 | [10] 0.001

HNRNPD isoform 4 (UniProt Q14103)
inactive: [1] 0.01 | [2] 0.043 | [3] -0.108 | [4] 0.009 | [5] 0.163 | [6] 0.031 | [7] -0.069 | [8] 0.038 | [9] -0.022 | [10] -0.094

HSP90AA1 isoform 2 (UniProt P07900)
inactive: [1] 0.03 | [2] -0.011 | [3] 0.008 | [4] 0.02 | [5] -0.038 | [6] 0.049 | [7] 0.025 | [8] 0.006 | [9] -0.017 | [10] 0.01

Quoted from above (eight entries):
HUWE1 (UniProt Q7Z6Z7)
inactive: [1] 0.024 | [2] -0.028 | [3] -0.009 | [4] -0.011 | [5] -0.032 | [6] 0.017 | [7] 0.049 | [8] 0.006 | [9] 0.006 | [10] 0.012

ICMT (UniProt O60725)
inactive: [1] -0.048 | [2] -0.085 | [3] -0.079 | [4] 0.072 | [5] -0.204 | [6] 0 | [7] -0.103 | [8] 0.064 | [9] -0.037 | [10] 0.022

HIRIP3 (UniProt Q9BW71)
inactive: [1] -0.016 | [2] -0.042 | [3] 0.011 | [4] 0.047 | [5] -0.004 | [6] 0.019 | [7] 0.039 | [8] -0.058 | [9] 0.042 | [10] 0.006

HGH1 (UniProt Q9BTY7)
inactive: [1] 0.002 | [2] -0.038 | [3] 0.083 | [4] -0.001 | [5] 0.284 | [6] 0.023 | [7] 0.022 | [8] 0.129 | [9] 0.053 | [10] 0.051

HS2ST1 (UniProt Q7LGA3)
inactive: [1] -0.048 | [2] 0.103 | [3] -0.048 | [4] -0.042 | [5] 0.063 | [6] -0.022 | [7] -0.02 | [8] 0.014 | [9] -0.058 | [10] 0.02

IARS2 (UniProt Q9NSE4)
inactive: [1] -0.034 | [2] 0.015 | [3] 0.007 | [4] 0.039 | [5] -0.04 | [6] 0.002 | [7] 0.022 | [8] -0.02 | [9] -0.042 | [10] -0.007

HSDL1 (UniProt Q3SXM5)
inactive: [1] -0.017 | [2] 0.012 | [3] 0.043 | [4] -0.039 | [5] -0.044 | [6] -0.051 | [7] 0.06 | [8] -0.044 | [9] -0.01 | [10] 0.001

HNRNPD isoform 4 (UniProt Q14103)
inactive: [1] 0.01 | [2] 0.043 | [3] -0.108 | [4] 0.009 | [5] 0.163 | [6] 0.031 | [7] -0.069 | [8] 0.038 | [9] -0.022 | [10] -0.094

Going on with the list.

HSPG2 (UniProt P98160)
inactive: [1] 0.005 | [2] 0.076 | [3] 0.013 | [4] -0.053 | [5] 0.127 | [6] 0.039 | [7] -0.045 | [8] 0.009 | [9] -0.015 | [10] 0.033

HPCAL1 (UniProt P37235)
inactive: [1] -0.022 | [2] 0.012 | [3] 0.048 | [4] 0.032 | [5] -0.092 | [6] -0.017 | [7] 0.005 | [8] -0.076 | [9] -0.041 | [10] 0.019

HNRNPU (UniProt Q00839)
inactive: [1] 0.06 | [2] -0.1 | [3] -0.027 | [4] -0.024 | [5] 0.301 | [6] -0.032 | [7] 0.023 | [8] 0.123 | [9] 0.168 | [10] -0.073

HSPE1 (UniProt P61604)
inactive: [1] -0.024 | [2] -0.024 | [3] 0.019 | [4] -0.015 | [5] -0.07 | [6] -0.053 | [7] -0.068 | [8] -0.03 | [9] -0.06 | [10] 0.016

HMGB1 (UniProt P09429)
inactive: [1] 0.009 | [2] 0.052 | [3] 0.007 | [4] 0.02 | [5] -0.023 | [6] -0.033 | [7] -0.011 | [8] 0.07 | [9] -0.06 | [10] 0.017
